# Data: the M2OR odorant receptor database
# Amino acid sequences for entries named in this document (tags omitted). A change or cut given only in a name is not applied to a line headed by its entry.
# UniProt Q8NGN4: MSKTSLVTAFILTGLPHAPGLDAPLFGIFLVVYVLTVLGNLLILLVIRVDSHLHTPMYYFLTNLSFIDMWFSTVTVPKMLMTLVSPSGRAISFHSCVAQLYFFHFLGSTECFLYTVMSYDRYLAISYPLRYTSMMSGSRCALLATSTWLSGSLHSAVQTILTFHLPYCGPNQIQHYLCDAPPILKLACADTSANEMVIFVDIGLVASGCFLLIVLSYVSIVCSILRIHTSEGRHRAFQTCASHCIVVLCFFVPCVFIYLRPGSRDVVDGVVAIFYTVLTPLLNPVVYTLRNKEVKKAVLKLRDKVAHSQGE
# UniProt O60403: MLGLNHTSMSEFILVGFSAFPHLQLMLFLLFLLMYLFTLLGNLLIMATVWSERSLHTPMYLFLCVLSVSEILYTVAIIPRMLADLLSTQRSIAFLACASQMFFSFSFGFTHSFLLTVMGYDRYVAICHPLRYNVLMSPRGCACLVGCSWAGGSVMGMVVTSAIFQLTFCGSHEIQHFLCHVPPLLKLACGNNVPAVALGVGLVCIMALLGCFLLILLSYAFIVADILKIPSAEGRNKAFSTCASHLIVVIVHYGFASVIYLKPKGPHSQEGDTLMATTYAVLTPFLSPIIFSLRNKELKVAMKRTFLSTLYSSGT
# UniProt Q8NGA6: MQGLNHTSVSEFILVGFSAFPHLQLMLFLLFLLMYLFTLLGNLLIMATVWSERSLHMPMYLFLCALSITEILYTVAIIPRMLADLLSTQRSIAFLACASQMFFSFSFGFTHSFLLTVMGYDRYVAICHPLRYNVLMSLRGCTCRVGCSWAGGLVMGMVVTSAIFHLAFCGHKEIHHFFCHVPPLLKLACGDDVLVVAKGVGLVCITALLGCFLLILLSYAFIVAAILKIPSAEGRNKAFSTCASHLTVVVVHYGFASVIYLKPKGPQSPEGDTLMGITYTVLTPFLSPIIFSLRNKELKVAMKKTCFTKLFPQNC
# UniProt P30954: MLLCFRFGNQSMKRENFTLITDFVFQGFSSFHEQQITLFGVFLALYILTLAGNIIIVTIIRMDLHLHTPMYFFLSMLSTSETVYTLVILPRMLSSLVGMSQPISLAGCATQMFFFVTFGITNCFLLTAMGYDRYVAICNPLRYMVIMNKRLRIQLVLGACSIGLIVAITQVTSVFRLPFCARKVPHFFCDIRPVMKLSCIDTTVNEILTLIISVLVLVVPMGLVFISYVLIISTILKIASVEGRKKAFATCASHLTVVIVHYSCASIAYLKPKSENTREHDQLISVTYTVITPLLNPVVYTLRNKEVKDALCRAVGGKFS
# UniProt Q5JRS4: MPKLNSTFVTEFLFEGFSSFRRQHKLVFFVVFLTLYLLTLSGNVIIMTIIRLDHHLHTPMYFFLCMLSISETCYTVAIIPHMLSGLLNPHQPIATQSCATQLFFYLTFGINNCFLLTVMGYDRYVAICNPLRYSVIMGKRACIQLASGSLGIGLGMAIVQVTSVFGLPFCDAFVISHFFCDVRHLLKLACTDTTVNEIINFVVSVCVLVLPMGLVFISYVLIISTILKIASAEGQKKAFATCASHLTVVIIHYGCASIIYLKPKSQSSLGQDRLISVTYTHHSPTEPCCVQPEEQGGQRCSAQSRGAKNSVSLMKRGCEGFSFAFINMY
# This is a selection; strong and weak results do not stand in their true shares. The calls were merged from several studies; some rest on single wells.
# Tests used:
# Settings in all cases: stereoisomer not certain
# OR10G8 (Homo sapiens) = target: T1, OR10G8 (Homo sapiens) (UniProt Q8NGN5)
# T1 sequence (whole entry): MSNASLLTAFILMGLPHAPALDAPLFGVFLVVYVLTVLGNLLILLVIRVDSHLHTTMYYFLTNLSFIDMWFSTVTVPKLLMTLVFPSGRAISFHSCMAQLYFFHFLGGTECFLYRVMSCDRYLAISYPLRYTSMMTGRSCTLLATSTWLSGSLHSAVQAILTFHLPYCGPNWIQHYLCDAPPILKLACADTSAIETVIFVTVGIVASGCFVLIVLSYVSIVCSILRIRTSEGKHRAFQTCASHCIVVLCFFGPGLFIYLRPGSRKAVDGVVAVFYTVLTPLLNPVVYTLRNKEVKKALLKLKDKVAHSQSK
# How it was run: (§1)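 Values were gathered from published papers (main text and supplementary material), with extra details requested from the original authors when needed, and checked for typos and inconsistencies. Each receptor–molecule pair is called responsive (active) if the original authors judged the measured signal statistically different from baseline, and non-responsive (inactive) otherwise. Assay methods varied by source, often transient mammalian cell-line luciferase assays. Recorded details include cell line, G-protein, co-transfected protein and tags.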
# OR10H1 (Homo sapiens) = target: T2, OR10H1 (Homo sapiens) (UniProt Q9Y4A9)
# T2 sequence (whole entry): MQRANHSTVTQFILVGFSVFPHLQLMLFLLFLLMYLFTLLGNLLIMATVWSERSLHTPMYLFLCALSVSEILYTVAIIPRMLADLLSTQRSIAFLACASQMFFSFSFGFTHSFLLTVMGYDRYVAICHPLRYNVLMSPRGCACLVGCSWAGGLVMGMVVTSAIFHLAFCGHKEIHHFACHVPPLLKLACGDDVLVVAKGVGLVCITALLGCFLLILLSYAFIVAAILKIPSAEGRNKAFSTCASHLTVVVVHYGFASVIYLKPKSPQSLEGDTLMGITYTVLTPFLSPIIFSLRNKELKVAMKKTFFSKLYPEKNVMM
# How it was run: as §1
# OR10H3 (Homo sapiens) = target: T3, OR10H3 (Homo sapiens) (UniProt O60404)
# T3 sequence (whole entry): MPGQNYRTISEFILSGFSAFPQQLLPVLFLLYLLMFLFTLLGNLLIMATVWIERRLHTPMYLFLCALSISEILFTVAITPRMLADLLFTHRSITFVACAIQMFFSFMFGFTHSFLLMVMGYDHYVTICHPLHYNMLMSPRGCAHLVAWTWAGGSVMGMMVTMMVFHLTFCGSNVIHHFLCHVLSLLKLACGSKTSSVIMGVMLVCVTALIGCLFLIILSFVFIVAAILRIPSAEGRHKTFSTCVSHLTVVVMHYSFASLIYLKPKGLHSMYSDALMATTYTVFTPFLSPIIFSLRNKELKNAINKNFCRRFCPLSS
# How it was run: as §1
# OR10H4 (Homo sapiens) = target: T4, OR10H4 (Homo sapiens) (UniProt Q8NGA5)
# T4 sequence (whole entry): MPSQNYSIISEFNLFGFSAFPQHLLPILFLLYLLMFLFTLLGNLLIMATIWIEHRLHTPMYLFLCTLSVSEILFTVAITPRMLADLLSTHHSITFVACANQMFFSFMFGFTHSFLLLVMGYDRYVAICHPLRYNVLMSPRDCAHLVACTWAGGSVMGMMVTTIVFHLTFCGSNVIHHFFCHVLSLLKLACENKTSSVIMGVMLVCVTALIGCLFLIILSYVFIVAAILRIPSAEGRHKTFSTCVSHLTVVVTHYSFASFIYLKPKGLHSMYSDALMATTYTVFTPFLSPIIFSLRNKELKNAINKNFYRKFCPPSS
# How it was run: as §1
# OR10J5 (Homo sapiens) = target: T5, OR10J5 (Homo sapiens) (UniProt Q8NHC4)
# T5 sequence (whole entry): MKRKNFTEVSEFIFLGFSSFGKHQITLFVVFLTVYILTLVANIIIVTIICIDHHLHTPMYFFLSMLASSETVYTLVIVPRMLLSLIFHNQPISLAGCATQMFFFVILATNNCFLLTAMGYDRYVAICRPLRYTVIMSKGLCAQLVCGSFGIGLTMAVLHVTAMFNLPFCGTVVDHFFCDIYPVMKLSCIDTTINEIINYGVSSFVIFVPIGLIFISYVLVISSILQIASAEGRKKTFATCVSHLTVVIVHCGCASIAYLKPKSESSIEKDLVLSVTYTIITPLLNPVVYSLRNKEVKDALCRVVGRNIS
# How it was run: as §1
# OR10G9 (Homo sapiens) = OR10G9 (Homo sapiens) (UniProt Q8NGN4)
# How it was run: as §1
# OR10H2 (Homo sapiens) = OR10H2 (Homo sapiens) (UniProt O60403)
# How it was run: as §1
# OR10H5 (Homo sapiens) = OR10H5 (Homo sapiens) (UniProt Q8NGA6)
# How it was run: as §1
# OR10J1 (Homo sapiens) = OR10J1 (Homo sapiens) (UniProt P30954)
# How it was run: as §1
# OR10J3 (Homo sapiens) = OR10J3 (Homo sapiens) (UniProt Q5JRS4)
# How it was run: as §1
SMILES,odorant receptor agonist call (OR10G8 (Homo sapiens)),odorant receptor agonist call (OR10H1 (Homo sapiens)),odorant receptor agonist call (OR10H3 (Homo sapiens)),odorant receptor agonist call (OR10H4 (Homo sapiens)),odorant receptor agonist call (OR10J5 (Homo sapiens)),odorant receptor agonist call (OR10G9 (Homo sapiens)),odorant receptor agonist call (OR10H2 (Homo sapiens)),odorant receptor agonist call (OR10H5 (Homo sapiens)),odorant receptor agonist call (OR10J1 (Homo sapiens)),odorant receptor agonist call (OR10J3 (Homo sapiens))
CCCCCCCC=O,inactive,inactive,inactive,inactive,inactive,–,–,–,–,–
CC(=O)OC(C)(C)C1CC=C(C)CC1 (stereo unspecified),inactive,inactive,inactive,inactive,inactive,–,–,–,–,–
CCCCCC(=O)O,inactive,inactive,inactive,inactive,inactive,–,–,–,–,–
CC1COCc2cc3c(cc21)C(C)(C)C(C)C3(C)C (stereo unspecified),active,active,active,active,active,–,–,–,–,–
CC12C=CCC1C1CCC3CC(=O)CCC3(C)C1CC2 (stereo unspecified),inactive,inactive,inactive,inactive,inactive,inactive,inactive,inactive,inactive,inactive
CCCC(=O)O,inactive,inactive,inactive,inactive,inactive,–,–,–,–,–
CC(C)(C)c1ccc(CCC=O)cc1,inactive,inactive,inactive,inactive,inactive,–,–,–,–,–
COc1ccccc1O,inactive,inactive,inactive,inactive,inactive,–,–,–,–,–
CC12CCC(C1)C(C)(C)C2=O (stereo unspecified),inactive,inactive,inactive,inactive,inactive,–,–,–,–,–
O=C1CCCCCCCCCCCC(=O)OCCO1,inactive,inactive,inactive,inactive,inactive,–,–,–,–,–
O=C1CCCCCCCCCCCCCCO1,inactive,inactive,inactive,inactive,inactive,–,–,–,–,–
CC12C=CCC1C1CCC3=CC(=O)CCC3(C)C1CC2 (stereo unspecified),inactive,inactive,inactive,inactive,inactive,–,–,–,–,–
CC(=O)OCC=C(C)CCC=C(C)C,inactive,inactive,inactive,inactive,inactive,–,active,–,–,–
c1cnccn1,inactive,inactive,inactive,inactive,inactive,–,–,–,–,–
CCCCCCCC=CC=O,inactive,inactive,inactive,inactive,active,–,–,–,–,–
c1ccc(Oc2ccccc2)cc1,inactive,inactive,inactive,inactive,inactive,–,–,–,–,–
C=CCSCC=C,inactive,inactive,inactive,inactive,inactive,–,–,–,–,–
CCCCCCCCOC(C)=O,inactive,inactive,inactive,inactive,inactive,–,–,–,–,–
COc1cc(C=O)ccc1O,inactive,inactive,inactive,inactive,inactive,–,–,–,–,–
CC12CCC(CC1)C(C)(C)O2,inactive,inactive,inactive,inactive,inactive,–,–,–,–,–
CC1CCC(C(C)C)C(O)C1 (stereo unspecified),inactive,inactive,active,inactive,inactive,–,–,–,–,–
CC(C)C(=O)O,inactive,inactive,inactive,inactive,inactive,–,–,–,–,–
C=CC(C)(O)CCC=C(C)C (stereo unspecified),inactive,inactive,inactive,inactive,inactive,–,–,–,–,–
CC=Cc1ccc(O)c(OC)c1,inactive,inactive,inactive,inactive,inactive,–,–,–,–,–

# 3 entries out of the list, arranged by heavy-atom count, largest number first:
SMILES,odorant receptor agonist call (OR10G8 (Homo sapiens)),odorant receptor agonist call (OR10H1 (Homo sapiens)),odorant receptor agonist call (OR10H3 (Homo sapiens)),odorant receptor agonist call (OR10H4 (Homo sapiens)),odorant receptor agonist call (OR10J5 (Homo sapiens)),odorant receptor agonist call (OR10G9 (Homo sapiens)),odorant receptor agonist call (OR10H2 (Homo sapiens)),odorant receptor agonist call (OR10H5 (Homo sapiens)),odorant receptor agonist call (OR10J1 (Homo sapiens)),odorant receptor agonist call (OR10J3 (Homo sapiens))
CC=Cc1ccc(O)c(OC)c1,inactive,inactive,inactive,inactive,inactive,–,–,–,–,–
C=CC(C)(O)CCC=C(C)C (stereo unspecified),inactive,inactive,inactive,inactive,inactive,–,–,–,–,–
c1cnccn1,inactive,inactive,inactive,inactive,inactive,–,–,–,–,–
